Measured values: patent EP4722245A1, “ANTIBODY TARGETING ITGA2, ANTIBODY DRUG CONJUGATE THEREOF, AND USE” (Foreseen Technology (Beijing) Co., Ltd., priority 2023, dated 2024)
Positions count from the first letter of the chain named. These are yes or no findings as the source states them, for the method shown. Some entries that bind do so weakly or less than the wild type.

T1: ITGA2-His (UniProt P17301 30-1132, limits assumed)
T1 construct: Coated on the ELISA plate at 2 ug/mL; whole entry P17301 is named; also called ITGA2 protein; not shown: His tag
T1 sequence (looked up): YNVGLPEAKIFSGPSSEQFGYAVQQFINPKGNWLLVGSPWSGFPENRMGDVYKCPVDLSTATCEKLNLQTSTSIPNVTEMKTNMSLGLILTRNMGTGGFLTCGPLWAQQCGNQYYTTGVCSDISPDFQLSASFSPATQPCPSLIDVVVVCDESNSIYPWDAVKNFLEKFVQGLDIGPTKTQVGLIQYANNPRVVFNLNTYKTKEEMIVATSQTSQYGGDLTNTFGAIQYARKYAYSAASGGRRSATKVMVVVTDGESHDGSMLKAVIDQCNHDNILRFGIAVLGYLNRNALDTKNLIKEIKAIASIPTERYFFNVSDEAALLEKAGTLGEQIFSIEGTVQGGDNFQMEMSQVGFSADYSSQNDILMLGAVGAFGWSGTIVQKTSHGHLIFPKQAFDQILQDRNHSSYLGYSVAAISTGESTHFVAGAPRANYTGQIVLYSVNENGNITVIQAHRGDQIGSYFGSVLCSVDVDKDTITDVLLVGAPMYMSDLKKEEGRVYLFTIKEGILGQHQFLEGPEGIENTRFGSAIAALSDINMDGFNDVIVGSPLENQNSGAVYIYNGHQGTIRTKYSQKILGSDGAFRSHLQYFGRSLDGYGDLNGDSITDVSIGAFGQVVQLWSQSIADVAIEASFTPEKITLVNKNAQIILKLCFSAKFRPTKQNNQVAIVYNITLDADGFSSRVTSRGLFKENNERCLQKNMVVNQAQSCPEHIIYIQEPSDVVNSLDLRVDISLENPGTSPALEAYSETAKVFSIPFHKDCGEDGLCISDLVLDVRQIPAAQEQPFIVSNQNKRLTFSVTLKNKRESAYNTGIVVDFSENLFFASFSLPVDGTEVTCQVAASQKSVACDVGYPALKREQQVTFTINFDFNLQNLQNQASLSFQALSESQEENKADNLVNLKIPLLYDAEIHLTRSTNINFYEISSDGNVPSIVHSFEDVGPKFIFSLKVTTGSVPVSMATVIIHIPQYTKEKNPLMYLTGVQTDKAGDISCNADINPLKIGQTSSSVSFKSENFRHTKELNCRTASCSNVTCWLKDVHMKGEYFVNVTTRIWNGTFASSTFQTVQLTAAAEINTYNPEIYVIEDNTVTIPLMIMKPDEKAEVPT

B1: Chimeric mouse antibody FS002-A153 (antibody, human IgG1, kappa, V domains shown)
VH: QVQLQQSGAELVRPGASVTLSCKASGYTFTDYEMHWVKQTPVHGLEWIGTIDPETGGTTYNQKFNDKATLTADKSSSTAYMDLRSLTSEDSAVYYCSRSGYYVSSYESYAMDYWGQGTSVTVSS
VL: DIVMTQSPSSLTVTAGEKVTMSCKSSQSLLNSGNQKNYLTWYQQKPGQPPKLLIYGASTRESGVPDRFTGSGSGTDFTLTISSVQAEDLAVYYCQNDYSYPFTFGSGTKLEIKR
notes: Chimeric
B2: Humanized antibody FS002-A153-H5L2 (antibody, human IgG1, kappa, V domains shown)
VH: QVQLVQSGAEVKKPGASVKVSCKASGYTFTDYEMHWVRQAPGQGLEWMGTIDPETGGTTYAQKFQGRVTMTADTSISTAYMELSRLRSDDTAVYYCARSGYYVSSYESYAMDYWGQGTTVTVSS
VL: B1 VL with S9D, T12A, T14S, A15L, K18R, S22N, T69S, V84L, L89V, S106G
notes: Humanized IgG1 kappa
B3: Chimeric mouse antibody FS002-A208 (antibody, human IgG1, kappa, V domains shown)
VH: B1 VH with M34I, T50A, T59N, S105N
VL: DIVMTQSQKFMSTSVGDRVSVTCKASQNVGTNVAWYQQKPGQSPKTLIYSASYRFSGVPDRFTGSGSGTDFTLTINNVQSEDLADYFCQQYNIYPLSFGAGTKLELKR
notes: Chimeric
B4: Humanized antibody FS002-A153-H4L2 (antibody, human IgG1, kappa, V domains shown)
VH: B2 VH with M70L, A97S
VL: B1 VL with S9D, T12A, T14S, A15L, K18R, S22N, T69S, V84L, L89V, S106G
notes: Humanized IgG1 kappa
B5: Humanized antibody FS002-A153-H5L1 (antibody, human IgG1, kappa, V domains shown)
VH: B2 VH
VL: B1 VL with S9D, T12A, T14S, A15L, K18R, V84L, L89V, S106G
notes: Humanized IgG1 kappa
B6: Humanized antibody FS002-A153-H3L3 (antibody, human IgG1, kappa, V domains shown)
VH: B2 VH with V20L, M48I, A61N, M70L, A97S
VL: DIVMTQSPDSLAVSLGERATINCKSSQSLLNSGNQKNYLTWYQQKPGQPPKLLIYGASTRESGVPDRFSGSGSGTDFTLTISSLQAEDVAVYYCQNDYSYPFTFGGGTKLEIKR
notes: Humanized IgG1 kappa
B7: Humanized antibody FS002-A153-H5L4 (antibody, human IgG1, kappa, V domains shown)
VH: B2 VH
VL: DIVMTQSPPTLSVSPGERVTMSCKSSQSLLNSGNQKNYLTWYQQKPGQAPRLLIYGASTRESGVPDRFSGSGSGTDFTLTISSLQPEDFAVYYCQNDYSYPFTFGGGTKLEIKR
notes: Humanized IgG1 kappa
B8: Humanized antibody FS002-A103-H4L3 (antibody, human IgG1, kappa, V domains shown)
VH: B2 VH with T50V, A61N, M70L, A97S
VL: EIVMTQSPPTMSMSPGERVTLSCKASENVGTYVSWYQQKPGQAPRLLIYGASTRESGVPARFSGSGSGTDFTLTISSLQPEDFAVYYCQNDYSYPFTFGGGTKLEIKR
notes: Humanized IgG1 kappa
B9: Humanized antibody FS002-A226-H4L3 (antibody, human IgG1, kappa, V domains shown)
VH: B2 VH with M34I, M48I, T50A, T59N, A61N, M70L, A97S, S105N
VL: DIQITQSPSSMSASVGDRVTITCKASQDIKSYLSWYQQKPGKAPKLLIYDTSNLASGVPSRFSGSGSGTDYTLTISSLQPEDFATYYCQQWSSYPFTFGGGTKLEIKR
notes: Humanized IgG1 kappa
B10: Humanized antibody FS002-A153-H5L5 (antibody, human IgG1, kappa, V domains shown)
VH: B2 VH
VL: B7 VL with D1E, V13L, K24R, D66A
notes: Humanized IgG1 kappa
B11: Humanized antibody FS002-A208-H4L4 (antibody, human IgG1, kappa, V domains shown)
VH: B2 VH with M34I, M48I, T50A, T59N, A61N, M70L, A97S, S105N
VL: DIQMTQSPSSLSASVGDRVTITCRASQNVGTNVAWYQQKPEKAPKSLIYSASYRFSGVPSRFSGSGSGTDFTLTISSLQPEDFATYYCQQYNIYPLSFGGGTKLELKR
notes: Humanized IgG1 kappa
B12: Humanized antibody FS002-A208-H5L4 (antibody, human IgG1, kappa, V domains shown)
VH: B2 VH with M34I, T50A, T59N, A97S, S105N
VL: B11 VL
notes: Humanized IgG1 kappa
B13: Humanized antibody FS002-A103-H4L2 (antibody, human IgG1, kappa, V domains shown)
VH: B2 VH with T50V, A61N, M70L, A97S
VL: B8 VL with P9K, A60D
notes: Humanized IgG1 kappa
B14: Humanized antibody FS002-A226-H5L3 (antibody, human IgG1, kappa, V domains shown)
VH: B2 VH with M34I, T50A, T59N, A97S, S105N
VL: B9 VL
notes: Humanized IgG1 kappa
B15: Humanized antibody FS002-A208-H3L4 (antibody, human IgG1, kappa, V domains shown)
VH: QVQLVQSGAEVKKPGASVKVSCKASGYTFTDYEIHWVRQAPGQGLEWIGAIDPETGGTNYNQKFNDRVTLTADKSISTAYMELSRLRSDDTAVYYCSRSGYYVSNYESYAMDYWGQGTTVTVSS
VL: B11 VL
notes: Humanized IgG1 kappa
B16: Humanized antibody FS002-A103-H4L4 (antibody, human IgG1, kappa, V domains shown)
VH: B2 VH with T50V, A61N, M70L, A97S
VL: B8 VL with M11L, M13L, K24R, V58I
notes: Humanized IgG1 kappa
B17: Humanized antibody FS002-A226-H3L4 (antibody, human IgG1, kappa, V domains shown)
VH: B15 VH with V2L, K74T
VL: B9 VL with I4L, M11L, K24R, Y71F
notes: Humanized IgG1 kappa

These binders were tested against T1, ITGA2-His (assay: ELISA on coated ITGA2-His).

binding, binds:
B1
B2
B3
B4
B5
B6
B7
B8
B9
B10
B11
B12
B13
B14
B15
B16
B17
